# Results are given in words; binding and its absence hold for the method and conditions named. Binding seen in cells or lysates may run through a third protein.
# Biological target: GFP-tagged p22-P149A (Atlantic salmon reovirus Canada-2009) (UniProt C0L0N0)
# Assay: co-IP
substance,measurement,value
Intersectin-1 (from UniProt Q15811 1-1721),binding,no binding

# Reference: publication doi:10.1101/2020.06.03.130740
